According to publication PMC7571625:

Assays:
[1] = molecular target: RAB5 (human (endogenous in HEK293)); experiment: co-IP; HEK293 cells with or without ANXA6 knockdown, transfected with pcDNA3.1-ATG9A, starved with EBSS; lysates in IP buffer incubated with RAB5 or RAB11 antibodies overnight at 4°C; immunoblotting
[2] = molecular target: RAB11 (human (endogenous in HEK293)); experiment: as above

B1: ATG9A (autophagy-related 9A), from pcDNA3.1-ATG9A (protein, UniProt Q7Z3C6 1-839)
chain: MAQFDTEYQRLEASYSDSPPGEEDLLVHVAEGSKSPWHHIENLDLFFSRVYNLHQKNGFTCMLIGEIFELMQFLFVVAFTTFLVSCVDYDILFANKMVNHSLHPTEPVKVTLPDAFLPAQVCSARIQENGSLITILVIAGVFWIHRLIKFIYNICCYWEIHSFYLHALRIPMSALPYCTWQEVQARIVQTQKEHQICIHKRELTELDIYHRILRFQNYMVALVNKSLLPLRFRLPGLGEAVFFTRGLKYNFELILFWGPGSLFLNEWSLKAEYKRGGQRLELAQRLSNRILWIGIANFLLCPLILIWQILYAFFSYAEVLKREPGALGARCWSLYGRCYLRHFNELEHELQSRLNRGYKPASKYMNCFLSPLLTLLAKNGAFFAGSILAVLIALTIYDEDVLAVEHVLTTVTLLGVTVTVCRSFIPDQHMVFCPEQLLRVILAHIHYMPDHWQGNAHRSQTRDEFAQLFQYKAVFILEELLSPIVTPLILIFCLRPRALEIIDFFRNFTVEVVGVGDTCSFAQMDVRQHGHPQWLSAGQTEASVYQQAEDGKTELSLMHFAITNPGWQPPRESTAFLGFLKEQVQRDGAAASLAQGGLLPENALFTSIQSLQSESEPLSLIANVVAGSSCRGPPLPRDLQGSRHRAEVASALRSFSPLQPGQAPTGRAHSTMTGSGVDARTASSGSSVWEGQLQSLVLSEYASTEMSLHALYMHQLHKQQAQAEPERHVWHRRESDESGESAPDEGGEGARAPQSIPRSASYPCAAPRPGAPETTALHGGFQRRYGGITDPGTVPRVPSHFSRLPLGGWAEDGQSASRHPEPVPEEGSEDELPPQVHKV
binding [1]: binds
binding [2]: binds

No constants are given. Whether binding was seen depends on the method and setting. Binding seen in cells or lysates may run through a third protein. Binding calls can cover weak binding; strength is not graded here.
